From paper PMC4504706, “Deinococcus radiodurans PriA is a Pseudohelicase”

Molecular target: Deinococcus radiodurans DnaB (Deinococcus radiodurans R1)
Assay: native gel or EMSA; native agarose gel electrophoresis; PriA and DnaB mixed and incubated on ice for 10 min; 0.6% agarose in 25 mM Tris-HCl pH 8.5, 19.2 mM glycine; 50 V for about 4 h at 4°C; Coomassie staining; both purified

- binding: binds
B1: Deinococcus radiodurans PriA (protein, UniProt P0DXX8 1-925)
chain: MTLWTVSPPAVSSEAEEKPVQDTVSLTAADQTWQVCVPLPIAALDFAAPHGYVGEVPLGCRVAVPWRGGEIRVGLVVGAGSSMGRHRLREALALLDSPEAPWVAPGTARGLTAWAEEAHLPPGLVWDDLLCTGWEPAHRHEVRAVPGADLSPYGETLPDTDWSRADLYPPALLDAAREQGLLDDRFLPDPPQVNRVVARDLNDVPPAARTQVVVTAQPWEAADPALCTPPHWEAVTGEGALTAKQQQAHDWLRAHGPQPSLGAWASGAKVGLPVVRKVADLGWAQEHPQAVPPPPAWKWLREHGPVASPAAWASAAGVRPAEVRRLMEGGAADYTFTPVTPPAAWAWLREHGPAETVSAWATGAGVSPSVAAGLLARGWAAQVQMPAPPPELPAAPLWAGPPLDELTALAADALPEEDRWRLHGGRPASRFAALAPRVARLLAQGRSVLILAPDHATLRRAWAGLGGLAALAGTRAALLSGQLSPRQREEIWRQVRAGDVRLVIGSALALSAPLPDLALLVVLEEGSDAYKLLSGSRAFVPDVAARVARSLRAALGLVGSVPAVESVPLPGLVLAPPRARVHVVDYAQPPAQPELGPLSSVHLTPGDLGYPISHDLARLLRQVQERGRQAALLAPRRGYSALLRCPRCDHVPGCPNCDVPLRFHQDRRQMECHQCGHHQSVPDRCDECGEQMWKARGPGTEWIAAEVEKLLPGFPVYRLDKDHQDDLAPLHAGEAGVVVGTQLLLAQPSPPNLALIGVTLADTWLGVSDFRASERYHRLLRQLAEWHPSRAPLLVVQTFQGDHPALKVLETGRDALAYPAAEERVRAELFYPPHARLAQIEVAARDRDRAKVAAQALADALHGAGAVATEVLGPAHAAVARVRGAYLYQLLLRARNDARLAELLGVLDTRSWGARVRVDVNPRST

These are yes or no findings as the source states them, for the method shown. A result given as binding can be weak or reduced; the word gives no strength.
